Measurements as given in article PMC7288954.
These are yes or no findings as the source states them, for the method shown. Binding seen in cells or lysates may run through a third protein. Some entries that bind do so weakly or less than the wild type.

Sequences of proteins named here, by UniProt entry; tags and fusion partners are left off.
UniProt Q5PQN5: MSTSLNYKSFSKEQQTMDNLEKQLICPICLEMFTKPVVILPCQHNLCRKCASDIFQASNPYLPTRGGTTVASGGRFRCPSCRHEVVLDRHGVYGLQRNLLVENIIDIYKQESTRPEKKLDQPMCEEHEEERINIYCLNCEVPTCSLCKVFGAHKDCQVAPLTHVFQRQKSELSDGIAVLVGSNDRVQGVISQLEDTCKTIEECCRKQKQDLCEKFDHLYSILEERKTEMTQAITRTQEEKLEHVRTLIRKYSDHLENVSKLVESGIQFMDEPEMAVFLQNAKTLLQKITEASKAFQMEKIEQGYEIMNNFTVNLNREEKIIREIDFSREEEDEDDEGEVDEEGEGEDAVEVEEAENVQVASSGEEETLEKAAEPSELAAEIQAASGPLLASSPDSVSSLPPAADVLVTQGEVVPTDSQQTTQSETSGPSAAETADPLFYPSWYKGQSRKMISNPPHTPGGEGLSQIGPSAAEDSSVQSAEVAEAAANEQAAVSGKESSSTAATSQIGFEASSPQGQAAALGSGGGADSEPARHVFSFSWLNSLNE

Molecular target: T1, dual-specificity protein phosphatase 1 (rat (endogenous in H9C2)) (UniProt Q64623)
T1 sequence: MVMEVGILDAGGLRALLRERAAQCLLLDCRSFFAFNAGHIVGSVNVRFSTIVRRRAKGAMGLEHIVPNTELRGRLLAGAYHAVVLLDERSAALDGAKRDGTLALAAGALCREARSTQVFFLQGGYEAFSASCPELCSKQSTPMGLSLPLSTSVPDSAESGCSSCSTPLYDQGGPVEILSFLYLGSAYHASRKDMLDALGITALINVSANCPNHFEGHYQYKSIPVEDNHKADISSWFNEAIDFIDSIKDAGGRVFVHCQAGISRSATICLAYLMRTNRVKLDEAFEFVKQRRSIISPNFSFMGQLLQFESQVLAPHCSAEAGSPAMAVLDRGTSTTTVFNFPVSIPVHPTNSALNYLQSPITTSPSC
Assay: co-IP; H9C2 whole-cell lysates incubated with 2 ug anti-TRIM55, anti-DUSP1 or normal IgG and protein G-agarose beads at 4 C overnight; SDS-PAGE and blotting

binding: binds
Substance: TRIM55 (from UniProt Q5PQN5 1-545)
